Laboratory results: PubChem BioAssay AID493246 (Drosophila RNAi Screening Center, 2011)

Purpose: 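Genome-wide search for dsRNAs that reduce cell number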 (primary screen)
Cell system: Drosophila Kc and S2R+ cells
Reagents: long dsRNA against Drosophila genes
Detection: 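Raw, unnormalised count of remaining cells in each well; per-plate z-scores of cell number underlie the calls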
Reading the numbers: Kc cell number and S2R+ cell number: higher = more cells remaining
Hit rule: 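Active when the per-plate z-score of cell number is 3 or more in the direction of fewer cells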
In all, the deposit lists about 21,000 reagents; shown is a random part of those that have a named target and a result. Of all reagents, 429 (2%) got an active call. 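Values are raw and not normalised between plates; calls rest on per-plate z-scores that were not deposited.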 The numbers tell different reagents against one gene apart. A plus sign joins genes that one reagent is predicted to hit. Reagent sequences are not shown. The record does not give: the amount of reagent, the time to read-out.

no.	target	reagent	Kc cell number, rep 1	Kc cell number, rep 2	S2R+ cell number, rep 1	S2R+ cell number, rep 2	Call
1	erm (earmuff)	1	1.39e6	1.40e6	1.08e6	1.17e6	inactive
2	Bcs1 (Bcs1 chaperone)	1	1.51e6	1.57e6	1.12e6	1.26e6	inactive
3	l(3)72Dn (lethal (3) 72Dn)	1	1.62e6	1.69e6	1.47e6	1.54e6	inactive
4	Khc-73 (Kinesin heavy chain 73)	1	1.36e6	1.40e6	1.09e6	1.11e6	inactive
5	thr (three rows)	1	1.16e6	1.29e6	6.39e5	7.20e5	inactive
6	Rab3-GAP (Rab3 GTPase activating protein)	1	1.34e6	1.44e6	1.24e6	1.29e6	inactive
7	lqf (liquid facets)	1	1.42e6	1.49e6	1.32e6	1.26e6	inactive
8	CG9777	1	1.56e6	1.63e6	1.14e6	1.19e6	inactive
9	CG12009	1	1.41e6	1.47e6	1.29e6	1.19e6	inactive
10	CG6443	1	9.65e5	1.09e6	8.58e5	7.03e5	inactive
11	CG9395	1	1.66e6	1.59e6	1.32e6	1.50e6	inactive
12	Rnmt (RNA guanine-7 methyltransferase)	1	1.54e6	1.60e6	1.26e6	1.36e6	inactive
13	Fbxo42 (F-box protein 42)	1	1.40e6	1.46e6	1.08e6	1.09e6	inactive
14	CG42758	1	1.34e6	1.36e6	1.21e6	1.28e6	inactive
15	Lamtor2 + CG30120	1	5.36e5		8.00e5		inactive
16	Lamtor2 + CG30120	2	1.54e6	1.61e6	1.17e6	1.30e6	inactive
17	Bx (Beadex)	1	1.60e6	1.66e6	1.07e6	1.14e6	inactive
18	CG34202	1	4.98e5		7.70e5		inactive
19	CG18628	1	1.54e6	1.75e6	1.23e6	1.27e6	inactive
20	RyR (Ryanodine receptor)	1	1.51e6	1.51e6	1.22e6	1.32e6	inactive
21	TORIP (Torsin interacting protein)	1	1.45e6	1.52e6	1.17e6	1.21e6	inactive
22	MRG15 (MORF-related gene 15)	1	1.50e6	1.54e6	1.19e6	1.34e6	inactive
23	CG12991	1	1.49e6	1.48e6	1.02e6	1.14e6	inactive
24	Cyp4p3 (Cytochrome P450 4p3)	1	1.77e6	1.92e6	1.31e6	1.45e6	inactive
25	CG42272	1	1.58e6	1.59e6	1.07e6	1.23e6	inactive
26	CG10927	1	1.44e6	1.54e6	1.36e6	1.28e6	inactive
27	aub (aubergine)	1	1.46e6	1.49e6	1.36e6	1.28e6	inactive
28	Srr (Serine racemase)	1	1.71e6	1.75e6	1.24e6	1.39e6	inactive

Continued; the last 5 above are carried over.
no.	target	reagent	Kc cell number, rep 1	Kc cell number, rep 2	S2R+ cell number, rep 1	S2R+ cell number, rep 2	Call
24	Cyp4p3 (Cytochrome P450 4p3)	1	1.77e6	1.92e6	1.31e6	1.45e6	inactive
25	CG42272	1	1.58e6	1.59e6	1.07e6	1.23e6	inactive
26	CG10927	1	1.44e6	1.54e6	1.36e6	1.28e6	inactive
27	aub (aubergine)	1	1.46e6	1.49e6	1.36e6	1.28e6	inactive
28	Srr (Serine racemase)	1	1.71e6	1.75e6	1.24e6	1.39e6	inactive
29	stan (starry night)	1	5.39e5	7.75e5	6.26e5	7.39e5	active
30	stan (starry night)	2	1.52e6	1.52e6	1.30e6	1.42e6	inactive
31	CG43328	1	5.23e5		7.79e5		inactive
32	Pex12 (Peroxin 12)	1	1.51e6	1.58e6	8.09e5	9.47e5	inactive
33	CG4004	1	6.04e5		8.53e5		inactive
34	CG4004	2	1.61e6	1.57e6	1.05e6	1.13e6	inactive
35	CG17776	1	1.56e6	1.55e6	1.07e6	1.25e6	inactive
36	RhoGAP100F (Rho GTPase activating protein at 100F)	1	4.71e5		7.57e5		inactive
37	LysB (Lysozyme B)	1	1.44e6	1.34e6	9.65e5	1.23e6	inactive
38	CG14641	1	1.65e6	1.70e6	1.31e6	1.43e6	inactive
39	CG1701	1	1.70e6	1.71e6	1.41e6	1.59e6	inactive
40	Usp2 (Ubiquitin specific protease 2)	1	1.38e6	1.54e6	1.06e6	1.10e6	inactive
41	Usp2 (Ubiquitin specific protease 2)	2	1.43e6	1.52e6	1.05e6	1.21e6	inactive
42	Usp2 (Ubiquitin specific protease 2)	3	1.54e6	1.56e6	1.05e6	1.13e6	inactive
43	CG2701	1	5.31e5		8.36e5		inactive
44	Rpt4R (Regulatory particle triple-A ATPase 4-related)	1	1.40e6	1.42e6	1.23e6	1.32e6	inactive
45	Gcn2	1	4.68e5		8.38e5		inactive
46	GstD11 (Glutathione S transferase D11)	1	1.44e6	1.49e6	1.20e6	1.26e6	inactive
47	CG14401	1	1.51e6	1.67e6	1.31e6	3.57e5	inactive
48	Wnt6 (Wnt oncogene analog 6)	1	1.78e6	1.91e6	1.32e6	1.53e6	inactive
49	CG33309	1	1.56e6	1.54e6	9.83e5	1.19e6	inactive
50	alpha-Est6 (alpha-Esterase-6)	1	1.60e6	1.58e6	1.17e6	1.27e6	inactive
51	CG8236	1	1.52e6	1.74e6	1.41e6	1.57e6	inactive
52	ppk21 (pickpocket 21)	1	1.41e6	1.40e6	9.78e5	1.06e6	inactive
53	CG13050	1	1.49e6	1.66e6	1.31e6	1.42e6	inactive
54	TTLL1B (Tubulin tyrosine ligase-like 1B)	1	1.39e6	1.43e6	1.12e6	1.19e6	inactive
55	Fer2 (48 related 2)	1	1.54e6	1.78e6	1.08e6	1.18e6	inactive
56	Pu (Punch)	1	1.30e6	1.37e6	9.74e5	1.10e6	inactive
57	Grip84 (Gamma-tubulin ring protein 84)	1	1.53e6	1.68e6	1.04e6	1.20e6	inactive
58	CG13930	1	1.76e6	1.64e6	1.03e6	1.42e6	inactive
59	gudu	1	1.78e6	1.65e6	1.22e6	1.30e6	inactive
